# The exact form of at least one protein or probe is not confirmed. For some of these results: Weaker means in comparison with the reference protein, sequence or condition of that experiment. For some of these results: Protein sequences can lack the tags named with them.
# How the values were obtained:
# [1] = molecular target: T1, CsiR (Pseudomonas putida KT2440) (UniProt Q88IU1); assay: EMSA; conditions: 5-fold molar excess CsiR, prevents binding, dose-dependent 10-120 mM, 10 mM Tris-HCl pH 7.4, 50 mM KCl, 0.5 mM EDTA, 10% glycerol, 1 mM DTT, 30 C, 30 min, 6% native PAGE at 4 C, recombinant protein, residues 1-231, protein details: His6 (pETDuet-1, BamHI/HindIII), label: none (SYBR green I stain), probe letters rebuilt from the primers and the genome
# T1 sequence (looked up): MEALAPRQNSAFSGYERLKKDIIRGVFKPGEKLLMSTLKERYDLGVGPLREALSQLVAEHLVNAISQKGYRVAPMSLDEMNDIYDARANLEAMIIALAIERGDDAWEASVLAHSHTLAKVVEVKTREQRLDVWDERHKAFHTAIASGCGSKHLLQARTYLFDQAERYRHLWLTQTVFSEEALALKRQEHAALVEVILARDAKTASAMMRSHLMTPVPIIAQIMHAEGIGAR
# [2] = molecular target: T1, CsiR (Pseudomonas putida KT2440); assay: DNase I footprinting; conditions: 1 ug CsiR, 400 ng probe; 10 mM Tris-HCl pH 7.4, 50 mM KCl, 0.5 mM EDTA, 10% glycerol, 1 mM DTT; 30 C, 30 min; 6% native PAGE at 4 C; recombinant protein; residues 1-231; protein details: His6 (pETDuet-1, BamHI/HindIII); label: FAM (M13F-FAM primer); probe letters rebuilt from the primers and the genome; part of a longer …
# [3] = molecular target: T2, GcdR (Pseudomonas putida KT2440) (UniProt Q88RH3); assay: DNase I footprinting; conditions: 5 ug GcdR, 400 ng probe, two protected regions; 10 mM Tris-HCl pH 7.4, 50 mM KCl, 0.5 mM EDTA, 10% glycerol, 1 mM DTT; 30 C, 30 min; 6% native PAGE at 4 C; recombinant protein; label: FAM (M13F-FAM primer); probe letters rebuilt from the primers and the genome; part of a longer molecule
# T2 sequence: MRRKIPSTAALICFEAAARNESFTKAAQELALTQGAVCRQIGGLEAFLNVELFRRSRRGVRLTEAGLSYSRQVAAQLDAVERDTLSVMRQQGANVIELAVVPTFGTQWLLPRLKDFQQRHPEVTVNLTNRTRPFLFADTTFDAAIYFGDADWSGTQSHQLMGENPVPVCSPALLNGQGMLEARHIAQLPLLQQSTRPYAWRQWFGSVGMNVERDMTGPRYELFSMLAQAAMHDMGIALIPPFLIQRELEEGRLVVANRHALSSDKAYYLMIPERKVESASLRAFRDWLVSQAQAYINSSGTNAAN
sequence,measurement,setting,value
GATCCTGTTCCTCAAAACGTTTTGCCGATCATACCGAAACCCTCTGCTGACGAAAAACAATGGACAAACACGAGTAGTGTCGTTGAAAAATAAAAATGTAGACATTTTCAGTTAGTGGCGATATTTTTACCTCGCCCGCACTGATCCAGGTCATGACCGGACGGCGCCATCTACTTTTTTAGCCAGGACACTGCC (double strand) [F1 (csiR-csiD intergenic region)],binding result,[1]; 40 mM L-2-hydroxyglutarate,binds more weakly
same,binding result,[1]; 40 mM glutarate,binds more weakly
GATCCTGTTCCTCAAAACGTTTTGCCGATCATACCGAAACCCTCTGCTGACGAAAAACAATGGACAAACACGAGTAGTGTCGTTGAAAAATAAAAATGTAGACATTTTCAGTTAGTGGCGATATTTTTACCTCGCCCGCACTGATCCAGGTCATGACCGGACGGCGCCATCTACTTTTTTAGCCAGGACACTGCC (double strand) [F1 footprinting probe (FAM)],binding result,[2],binds
GCCGCCTCGAAGCAAATCAGGGCGGCGGTACTGGGGATCTTACGGCGCATGTACGTCAACCTCACTTGTAAGGCTGTCAATAAGGCGTTTTGCCGATTTACGGAGTGACAAAATATCACTAATCGGTGCGCAATCCTCGTTTGTCGCCGCAGCCGATCAGGCCTAGGCTCAAAGGCACAAGAAACTGACCCCTATTTCGAGGATTCGCTCATGGTCGGTAAAGCAAGTTTCAACTGGATCGACCCGTTGCTGCTGGATCA (double strand) [F2 footprinting probe (FAM)],binding result,[3],binds
